Laboratory results reported in PubChem BioAssay AID248 (DTP/NCI, 2004).
The list is a part of this screen's results and no random one: it is rich in T/C values a quarter to a half above the control, in often repeated tests (any T/C) and in doses without a T/C. Further doses and runs are listed elsewhere. T/C is the treated group as % of the vehicle group. Some doses have a count of surviving animals in place of a T/C: the source holds a T/C of zero for them, seemingly a mark for toxic or unscored doses. Some doses without a T/C left all or most animals alive at the check, yet need not have been tolerated: the source hardly ever lists a survival T/C far under the control, and the zero likely stands for such cases as well. Survivors were counted at the toxicity check, usually on the fifth day, unless a day is given; later deaths do not show. Schedules are NCI's codes, taken here to give the interval after Q, in days (D) or hours (H), and the number of doses after X. Some doses were run more than once; their values stand side by side, smallest first. Some schedule codes hold Z or #, which are not explained here. Where survival is the endpoint, this PubChem deposit counts one and a half times the control or more as active, and values a quarter to a half above the control carry no call in these data; other NCI protocols may use other cut-offs.

Test system: L1210 leukemia ip in BDF1 mice, survival T/C
Experiment: NCI In Vivo Anticancer Drug Screen. Data for tumor model L1210 Leukemia (intraperitoneal) in B6D2F1 (BDF1) mice
Settings: T/C endpoint: mean survival time, higher T/C = longer survival
[1] = dose: 400.0 mg/kg/injection, schedule: Q01DX001 (ip), vehicle: saline
[2] = dose: 300.0 mg/kg/injection, schedule: Q01DX001 (ip), vehicle: saline
[3] = dose: 200.0 mg/kg/injection, schedule: Q04DX003 (ip), vehicle: Klucel (hydroxypropylcellulose) (HPC)
[4] = dose: 400.0 mg/kg/injection, schedule: Q04DX003 (ip), vehicle: Klucel (hydroxypropylcellulose) (HPC)
[5] = dose: 100.0 mg/kg/injection, schedule: Q01DX009 (ip), vehicle: saline
[6] = dose: 400.0 mg/kg/injection, schedule: Q01DX001 (ip), vehicle: Klucel (hydroxypropylcellulose) (HPC)

How did the survivor count [1] turn out when `COCCOC(=O)c1ccc(C(=N)N)cc1` was run?
Its survivor count is 0 of 6.

With `O=C(O)/C=C\Br` as the compound, how does the survivor count (dose: 200.0 mg/kg/injection, schedule: Q01DX005 (ip), vehicle: Klucel (hydroxypropylcellulose) (HPC)) read?
The survivor count was 0 of 3.

Which survivor count [2] does the source give for `CN(C(=O)N(CCCl)N=O)C1CCCCC1` here?
The survivor count was 0 of 6.

How did the survivor count (dose: 240.0 mg/kg/injection, schedule: Q01DX Z (ip), vehicle: saline) turn out when `NC(N)=N/N=C/c1ccc(O)c(S(=O)(=O)O)c1` was run?
The survivor count was 6 of 6.

Which results are given for `Clc1ccc2c(NCCNC3CCCCC3)ccnc2c1`?
survivor count (dose: 75.0 mg/kg/injection, schedule: Q01DX001 (ip), vehicle: saline): 2 of 6; survivor count (dose: 150.0 mg/kg/injection, schedule: Q01DX001 (ip), vehicle: saline): 1 of 6; survivor count [2]: 0 of 6

`C=C(Br)CNC(=O)C1CCCCC1` was tested. Which survivor count (dose: 100.0 mg/kg/injection, schedule: Q04DX003 (ip), vehicle: Klucel (hydroxypropylcellulose) (HPC)) did it give?
Its survivor count is 5 of 6.

And the survivor count [3]?
Its survivor count is 0 of 6.

And the survivor count [4]?
Its survivor count is 0 of 6.

With `CCCCCCCCCCCCOC(=O)c1cc(O)c(O)c(O)c1` as the compound, how does the survivor count (dose: 150.0 mg/kg/injection, schedule: Q01DX001 (ip), vehicle: acetone) read?
Its survivor count is 3 of 6.

And the survivor count (dose: 300.0 mg/kg/injection, schedule: Q01DX001 (ip), vehicle: acetone)?
The survivor count was 1 of 6.

`C[N+](C)(C)N=C1CCCCC1` was tested. Which survivor count [1] did it give?
The survivor count was 0 of 4.

For `Cc1cncn1CC(=O)c1ccccc1`, which survivor count [5] is on record?
The survivor count was 0 of 3 and 1 of 6.

And the survivor count (dose: 100.0 mg/kg/injection, schedule: Q04DX002 (ip), vehicle: saline)?
Its survivor count is 3 of 6 and 2 of 3.

And the survivor count (dose: 200.0 mg/kg/injection, schedule: Q04DX002 (ip), vehicle: Klucel (hydroxypropylcellulose) (HPC))?
Its survivor count is 0 of 6.

And the survivor count (dose: 200.0 mg/kg/injection, schedule: Q04DX002 (ip), vehicle: saline)?
Its survivor count is 0 of 3.

What about the survivor count (dose: 400.0 mg/kg/injection, schedule: Q04DX002 (ip), vehicle: Klucel (hydroxypropylcellulose) (HPC)) of the same compound?
Its survivor count is 0 of 6.

And the survivor count (dose: 400.0 mg/kg/injection, schedule: Q04DX002 (ip), vehicle: saline)?
Its survivor count is 0 of 3.

`N#CNN=Nc1cc(Cl)c(Cl)c(Cl)c1` was tested. Which survivor count (dose: 25.0 mg/kg/injection, schedule: Q04DX003 (ip), vehicle: saline) did it give?
The survivor count was 0 of 6.

And the survivor count (dose: 50.0 mg/kg/injection, schedule: Q04DX003 (ip), vehicle: saline)?
The survivor count was 0 of 6.

What about the survivor count [5] of the same compound?
Its survivor count is 0 of 6.

What about the survivor count (dose: 100.0 mg/kg/injection, schedule: Q04DX003 (ip), vehicle: saline) of the same compound?
The survivor count was 0 of 6 and 1 of 6.

What about the survivor count (dose: 200.0 mg/kg/injection, schedule: Q01DX009 (ip), vehicle: saline) of the same compound?
Its survivor count is 0 of 6.

What about the survivor count (dose: 200.0 mg/kg/injection, schedule: Q04DX003 (ip), vehicle: saline) of the same compound?
The survivor count was 0 of 6.

And the survivor count (dose: 400.0 mg/kg/injection, schedule: Q04DX003 (ip), vehicle: saline)?
Its survivor count is 0 of 6.

How did the survivor count [3] turn out when `CSc1nnc(-c2cccs2)s1` was run?
The survivor count was 4 of 6.

What about the survivor count [4] of the same compound?
Its survivor count is 0 of 6.

Which results are given for `CC(C)(C)C1CCC(NC2=NCCO2)CC1` (stereo unspecified)?
survivor count (dose: 200.0 mg/kg/injection, schedule: Q01DX001 (ip), vehicle: Klucel (hydroxypropylcellulose) (HPC)): 0 of 6; survivor count [3]: 1 of 6; survivor count [6]: 0 of 6

With `Cn1ncc2c(NCc3ccccc3)ncnc21` as the compound, how does the survivor count [1] read?
The survivor count was 0 of 6.

How did the T/C (dose: 30.0 mg/kg/injection, schedule: Q01DX Z (ip), vehicle: saline) turn out when `CN=C(N)c1ccc(NC(=O)/C=C\c2ccc(/C=C/C(=O)Nc3ccc(C(N)=NC)cc3)cc2)cc1` was run?
The T/C was 126 % of control.

And the T/C (dose: 60.0 mg/kg/injection, schedule: Q01DX Z (ip), vehicle: saline)?
The T/C was 147 % of control.

Which results are given for `CCOC(=O)C1(C(C)C)OC2(O)C3CCCN3C(=O)C(C(C)C)N2C1=O` (stereo unspecified)?
survivor count (dose: 132.0 mg/kg/injection, schedule: Q01DX009 (ip), vehicle: Klucel (hydroxypropylcellulose) (HPC)): 4 of 6; survivor count [6]: 3 of 6; survivor count (dose: 400.0 mg/kg/injection, schedule: Q04DX003 (ip), vehicle: alcohol): 3 of 6

How did the survivor count (dose: 200.0 mg/kg/injection, schedule: Q01DX001 (ip), vehicle: saline) turn out when `C=C(Cl)CN(C)CC(=C)Cl` was run?
Its survivor count is 0 of 6.

What about the survivor count [1] of the same compound?
The survivor count was 0 of 6.

For `Cc1c(Br)c(=O)n(-c2ccccc2)n1C`, which survivor count [4] is on record?
Its survivor count is 1 of 6.

Which survivor count [4] does the source give for `CN1C(=O)CCS(=O)(=O)C1c1ccc(Cl)c(Cl)c1` (stereo unspecified) here?
Its survivor count is 2 of 4.

`C[Si](C)(C)Cc1ccccc1` was tested. Which survivor count (dose: 100.0 mg/kg/injection, schedule: Q01DX001 (ip), vehicle: carboxymethylcellulose (CMC)) did it give?
The survivor count was 4 of 4.

What about the survivor count (dose: 400.0 mg/kg/injection, schedule: Q01DX001 (ip), vehicle: carboxymethylcellulose (CMC)) of the same compound?
The survivor count was 4 of 4.

Which survivor count (dose: 100.0 mg/kg/injection, schedule: Q04DX003 (ip), vehicle: saline with Tween-80) does the source give for `O=C(Nc1cccnc1)c1ccccc1` here?
Its survivor count is 3 of 6.

What about the survivor count (dose: 200.0 mg/kg/injection, schedule: Q04DX003 (ip), vehicle: saline with Tween-80) of the same compound?
Its survivor count is 0 of 6.

And the survivor count (dose: 400.0 mg/kg/injection, schedule: Q04DX003 (ip), vehicle: saline with Tween-80)?
Its survivor count is 0 of 6.
